According to publication PMC5175582:

Molecular target: T1, Biotin-labelled MMRN1 (human) (UniProt Q13201)
T1 sequence (chain, biotin (sites not stated)): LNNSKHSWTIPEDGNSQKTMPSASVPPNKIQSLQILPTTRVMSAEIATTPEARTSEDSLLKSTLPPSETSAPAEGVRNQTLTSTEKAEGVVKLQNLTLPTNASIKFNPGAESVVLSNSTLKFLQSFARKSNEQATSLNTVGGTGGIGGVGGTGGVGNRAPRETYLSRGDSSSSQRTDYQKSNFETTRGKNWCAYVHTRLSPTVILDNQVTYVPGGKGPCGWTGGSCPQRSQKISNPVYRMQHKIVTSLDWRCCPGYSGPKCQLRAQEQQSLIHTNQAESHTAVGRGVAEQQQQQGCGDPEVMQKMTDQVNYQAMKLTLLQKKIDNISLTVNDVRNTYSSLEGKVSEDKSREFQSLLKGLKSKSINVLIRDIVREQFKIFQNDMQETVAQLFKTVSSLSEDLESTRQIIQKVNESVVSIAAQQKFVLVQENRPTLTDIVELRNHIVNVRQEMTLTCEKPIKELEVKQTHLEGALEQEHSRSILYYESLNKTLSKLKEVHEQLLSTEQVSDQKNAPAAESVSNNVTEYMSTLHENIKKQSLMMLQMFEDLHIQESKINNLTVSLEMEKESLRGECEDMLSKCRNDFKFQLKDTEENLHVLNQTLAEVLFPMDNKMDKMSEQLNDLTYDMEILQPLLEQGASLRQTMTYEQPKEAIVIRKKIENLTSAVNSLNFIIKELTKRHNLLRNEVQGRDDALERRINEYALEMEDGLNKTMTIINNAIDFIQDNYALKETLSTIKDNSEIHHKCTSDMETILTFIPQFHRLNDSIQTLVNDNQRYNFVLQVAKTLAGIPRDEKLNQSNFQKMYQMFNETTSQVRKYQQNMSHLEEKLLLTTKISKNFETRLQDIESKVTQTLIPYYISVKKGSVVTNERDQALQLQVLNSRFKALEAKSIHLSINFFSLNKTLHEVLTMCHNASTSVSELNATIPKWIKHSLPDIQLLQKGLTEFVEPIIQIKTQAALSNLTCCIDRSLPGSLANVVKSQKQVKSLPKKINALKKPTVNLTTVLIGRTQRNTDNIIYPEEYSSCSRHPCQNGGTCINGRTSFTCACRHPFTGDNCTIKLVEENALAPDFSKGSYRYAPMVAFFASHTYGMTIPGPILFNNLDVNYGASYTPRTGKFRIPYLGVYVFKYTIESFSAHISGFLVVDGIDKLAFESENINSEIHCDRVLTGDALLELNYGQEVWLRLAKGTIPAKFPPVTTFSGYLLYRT
Test: SPR; BIAcoreX; biotin-labelled MMRN1 immobilised on streptavidin-coated sensor chips (500–1000 RU); VWF A domains perfused in HEPES-Tyrode running buffer with 0.005 % P-20; two-state conformational model for A1A2A3 and A1, 1:1 Langmuir model for A3; apparent affinity; both purified

binding: no binding (tested: 250 nM)
Substance: Monomeric VWF A2 domain (domain or fragment)

Results are given in words; binding and its absence hold for the method and conditions named.
